Some entries share one result that the patent states for a list of compounds.
Test system: Mgp^−/− mouse model of AVM
Experiment: In vivo computed tomography angiography (CTA) of brain vasculature
Conditions: 0.08 nmol/mouse IN daily for 2-weeks with Ago-2
Experimental: In vivo ultra-high-resolution computed tomography angiography (CTA) was performed to study changes in neurovascular architecture like methods described previously. (Mukundan S, Jr., […], Badea C T, et al. A liposomal nanoscale contrast agent for preclinical CT in mice. AJR Am J Roentgenol. 2006; 186(2):300-307) ([…], Rendon D, et al. Ultra-High-Resolution In vivo Computed Tomography Imaging of Mouse Cerebrovasculature Using a Long Circulating Blood Pool Contrast Agent. Scientific reports. 2015; 5:10178). Briefly, mice were anesthetized using 3-4% isoflurane, positioned on a CT cradle and maintained at 1-1.5% isoflurane delivered via nose cone. Mice were intravenously injected a long circulating liposomal-iodine blood pool contrast agent (2.2 g/kg body weight) for CTA^8,9 and scanned on a small animal micro-CT scanner Rigaku CT Lab GX90-1-E. The following scan parameters were used: High Resolution Scan Mode, 70 kVp, 114 uA, 10 mm FOV, 1440 projections, 20 μm voxel size, 14 min scan time. All animal protocols were approved by the USC's Institutional Animal Care and Use Committee (IACUC) and strictly adhered to. […] The vascular data was quantified using ImageJ. […] The pixels were analyzed as particles and normalized to results from the wildtype mice (WT, Mgp^+/+).

hsa-miR-18a-5p (UAGGUGCAUCUAGUGCAGAUAG; chemistry not given here; listed as Homo sapiens) [small non-coding RNA molecule involved in post-transcriptional regulation of gene expression; Dharmacon]
CoW vascular density relative to healthy wildtype mice: 88-89%

Source: patent US20230212571A1, “COMPOSITIONS AND METHODS FOR DELIVERING POLYNUCLEOTIDES” (NeOnc Technologies, Inc., priority 2020, published 2023)
